Drawing on paper PMC6946813, this text covers binding for one substance.

The target in this experiment is T1, B-cell lymphoma 9 (BCL9) (human (endogenous in RKO, Colo320, SW620, LS174T, DLD-1)) (UniProt O00512).
T1 sequence: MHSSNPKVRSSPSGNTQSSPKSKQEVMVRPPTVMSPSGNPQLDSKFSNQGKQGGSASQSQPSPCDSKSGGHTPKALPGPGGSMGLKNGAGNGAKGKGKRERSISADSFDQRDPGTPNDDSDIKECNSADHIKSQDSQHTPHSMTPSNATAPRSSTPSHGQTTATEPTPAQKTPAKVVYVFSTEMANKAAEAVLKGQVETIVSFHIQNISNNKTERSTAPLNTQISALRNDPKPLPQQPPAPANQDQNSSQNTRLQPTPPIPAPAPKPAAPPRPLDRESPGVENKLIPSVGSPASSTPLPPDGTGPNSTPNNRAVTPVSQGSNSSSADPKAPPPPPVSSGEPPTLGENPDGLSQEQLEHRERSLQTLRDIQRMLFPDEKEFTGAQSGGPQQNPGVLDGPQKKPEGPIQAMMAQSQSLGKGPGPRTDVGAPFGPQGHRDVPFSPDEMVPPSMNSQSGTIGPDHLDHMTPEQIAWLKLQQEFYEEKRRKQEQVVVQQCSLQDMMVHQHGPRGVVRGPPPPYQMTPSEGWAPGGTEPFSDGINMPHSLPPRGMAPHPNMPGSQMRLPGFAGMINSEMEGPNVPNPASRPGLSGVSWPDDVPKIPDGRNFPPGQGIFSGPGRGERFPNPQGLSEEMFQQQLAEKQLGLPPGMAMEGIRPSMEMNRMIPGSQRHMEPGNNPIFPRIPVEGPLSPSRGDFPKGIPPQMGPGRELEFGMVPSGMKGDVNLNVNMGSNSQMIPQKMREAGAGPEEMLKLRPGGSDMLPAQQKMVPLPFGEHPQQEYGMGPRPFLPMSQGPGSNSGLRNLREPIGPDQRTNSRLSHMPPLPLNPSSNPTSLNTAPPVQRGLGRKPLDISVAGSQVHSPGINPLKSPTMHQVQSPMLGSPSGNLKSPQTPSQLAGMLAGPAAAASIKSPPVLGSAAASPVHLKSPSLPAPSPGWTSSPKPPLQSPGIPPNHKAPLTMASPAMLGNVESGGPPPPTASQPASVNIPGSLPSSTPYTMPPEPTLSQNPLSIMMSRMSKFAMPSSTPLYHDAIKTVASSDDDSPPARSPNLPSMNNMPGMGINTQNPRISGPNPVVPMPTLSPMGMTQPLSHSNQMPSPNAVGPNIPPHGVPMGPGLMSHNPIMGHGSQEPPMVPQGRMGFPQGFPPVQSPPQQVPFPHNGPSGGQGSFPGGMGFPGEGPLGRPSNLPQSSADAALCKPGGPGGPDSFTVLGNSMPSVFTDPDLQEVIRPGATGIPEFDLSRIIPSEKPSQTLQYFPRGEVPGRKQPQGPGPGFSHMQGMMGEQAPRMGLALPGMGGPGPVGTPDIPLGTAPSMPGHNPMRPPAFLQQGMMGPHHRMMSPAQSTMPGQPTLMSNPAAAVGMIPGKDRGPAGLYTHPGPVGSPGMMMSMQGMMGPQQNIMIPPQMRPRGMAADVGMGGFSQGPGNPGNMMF
Nature of the experiment: affinity purification with mass spectrometry; anti-BCL9 (two antibodies: ab37305 Abcam, 6109) or normal IgG precipitates from nuclear lysate of RKO and Colo320 cells; total protein MS after TCA precipitation and MS of bands cut from silver-stained gels.

Results are given in words; binding and its absence hold for the method and conditions named. In cells and extracts the contact can be indirect. These calls come from enrichment with a bait or labelling near it, and not all partners need be listed.

Turning to VCP (from UniProt P55072 1-806), the binding result is listed as “binds”.
